# The supplement of paper PMC8728848
# Some of the results follow.
# B1: Pwp6 (Candida glabrata) (protein)
# chain: MGSSHHHHHHSSGLVPRGSHMASANLPKLTNICQIPDNVKKTSGFKGEIRRIGLFPPGGDYTYLLKFPSTGSTASDTISLTTKPQLSTSGWFPSLFGHTYFIKADLLVYMVAYFVPTETGEYTFKLVNSDDAAVMYVGNPSAFPCGSIDTWPEPRKEDINVCDKISASTKLYMEKGLAYPVRLVWYNGGGDGQFNAQFIDPSGTTHTDWNGYVWQYDACTDCDYK
# Tests used:
# Test in all cases: glycan array binding signal (z-score within array); higher = stronger binding
# Details in all cases: glycan notation: IUPAC condensed, linker removed
# [1] = target: Neu5Ac(a2-3)Gal(b1-4)GlcNAc(b1-6)GalNAc
# Method in brief: (§1)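 Negative Z-scores can be read as non-binding. The Z-score is calculated within each array and then averaged across arrays of one protein sequence at different concentrations or buffers and across linkers. Arrays, 3228 in all, were curated from the Consortium for Functional Glycomics database and kept only where the protein sequence was available.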
# [2] = target: Neu5Ac(a2-3)Gal(b1-4)GlcNAc(b1-6)[Gal(b1-3)]GalNAc
# Method in brief: as §1
# [3] = target: Neu5Ac(a2-3)Gal(b1-4)GlcNAc(b1-6)[Neu5Ac(a2-3)Gal(b1-3)]GalNAc
# Method in brief: as §1
# [4] = target: Neu5Ac(a2-3)Gal(b1-4)GlcNAc6S
# Method in brief: as §1
# [5] = target: Neu5Ac(a2-3)Gal(b1-4)[Fuc(a1-3)]GlcNAc
# Method in brief: as §1
# [6] = target: Neu5Ac(a2-3)Gal(b1-4)[Fuc(a1-3)]GlcNAc(b1-2)Man
# Method in brief: as §1
# [7] = target: Neu5Ac(a2-3)Gal(b1-4)[Fuc(a1-3)]GlcNAc(b1-3)Gal
# Method in brief: as §1
# [8] = target: Neu5Ac(a2-3)Gal(b1-4)[Fuc(a1-3)]GlcNAc(b1-3)Gal(b1-4)GlcNAc
# Method in brief: as §1
# [9] = target: Neu5Ac(a2-3)Gal(b1-4)[Fuc(a1-3)]GlcNAc(b1-3)Gal(b1-4)[Fuc(a1-3)]GlcNAc(b1-3)Gal(b1-4)[Fuc(a1-3)]GlcNAc
# Method in brief: as §1
# [10] = target: Neu5Ac(a2-3)Gal(b1-4)[Fuc(a1-3)]GlcNAc(b1-3)GalNAc
# Method in brief: as §1
# [11] = target: Neu5Ac(a2-3)Gal(b1-4)[Fuc(a1-3)]GlcNAc(b1-6)[Gal(b1-3)]GalNAc
# Method in brief: as §1
# [12] = target: Neu5Ac(a2-3)Gal(b1-4)[Fuc(a1-3)]GlcNAc(b1-6)[Neu5Ac(a2-3)Gal(b1-3)]GalNAc
# Method in brief: as §1
# [13] = target: Neu5Ac(a2-3)Gal(b1-4)[Fuc(a1-3)]GlcNAc6S
# Method in brief: as §1
# [14] = target: Neu5Ac(a2-3)Gal6S(b1-4)GlcNAc
# Method in brief: as §1
# [15] = target: Neu5Ac(a2-3)Gal6S(b1-4)[Fuc(a1-3)]GlcNAc
# Method in brief: as §1
# Neu5Ac(a2-3)GalNAc = target: Neu5Ac(a2-3)GalNAc
# Method in brief: as §1
# [16] = target: Neu5Ac(a2-3)GalNAc(b1-4)GlcNAc
# Method in brief: as §1
# [17] = target: Neu5Ac(a2-3)[GalNAc(b1-4)]Gal(b1-4)Glc
# Method in brief: as §1
# [18] = target: Neu5Ac(a2-3)[GalNAc(b1-4)]Gal(b1-4)GlcNAc
# Method in brief: as §1
# [19] = target: Neu5Ac(a2-3)[GalNAc(b1-4)]Gal(b1-4)GlcNAc(b1-3)GalNAc
# Method in brief: as §1
# [20] = target: Neu5Ac(a2-3)[Neu5Ac(a2-6)]GalNAc
# Method in brief: as §1
# Neu5Ac(a2-6)Gal = target: Neu5Ac(a2-6)Gal
# Method in brief: as §1
# [21] = target: Neu5Ac(a2-6)Gal(b1-3)GlcNAc(b1-3)[Gal(b1-4)GlcNAc(b1-6)]Gal(b1-4)Glc
# Method in brief: as §1
# Neu5Ac(a2-6)Gal(b1-4)Glc = target: Neu5Ac(a2-6)Gal(b1-4)Glc
# Method in brief: as §1
# [22] = target: Neu5Ac(a2-6)Gal(b1-4)GlcNAc
# Method in brief: as §1
# [23] = target: Neu5Ac(a2-6)Gal(b1-4)GlcNAc(b1-2)Man
# Method in brief: as §1
# [24] = target: Neu5Ac(a2-6)Gal(b1-4)GlcNAc(b1-2)Man(a1-3)Man(b1-4)GlcNAc(b1-4)GlcNAc
# Method in brief: as §1
# [25] = target: Neu5Ac(a2-6)Gal(b1-4)GlcNAc(b1-2)Man(a1-3)[Gal(b1-4)GlcNAc(b1-2)Man(a1-6)]Man(b1-4)GlcNAc(b1-4)GlcNAc
# Method in brief: as §1
# [26] = target: Neu5Ac(a2-6)Gal(b1-4)GlcNAc(b1-2)Man(a1-3)[GlcNAc(b1-4)][Neu5Ac(a2-6)Gal(b1-4)GlcNAc(b1-2)Man(a1-6)]Man(b1-4)GlcNAc(b1-4)GlcNAc
# Method in brief: as §1
# [27] = target: Neu5Ac(a2-6)Gal(b1-4)GlcNAc(b1-2)Man(a1-3)[Man(a1-6)]Man(b1-4)GlcNAc(b1-4)GlcNAc
# Method in brief: as §1
binder,measurement,setting,value
B1,glycan array binding signal (z-score),[1],0.53
same,glycan array binding signal (z-score),[2],2.67
same,glycan array binding signal (z-score),[3],0.065
same,glycan array binding signal (z-score),[4],-0.548
same,glycan array binding signal (z-score),[5],-0.312
same,glycan array binding signal (z-score),[6],-0.225
same,glycan array binding signal (z-score),[7],-0.253
same,glycan array binding signal (z-score),[8],2.78
same,glycan array binding signal (z-score),[9],-0.179
same,glycan array binding signal (z-score),[10],1.46
same,glycan array binding signal (z-score),[11],-0.222
same,glycan array binding signal (z-score),[12],1.32
same,glycan array binding signal (z-score),[13],1.61
same,glycan array binding signal (z-score),[14],-0.567
same,glycan array binding signal (z-score),[15],-0.396
same,glycan array binding signal (z-score),Neu5Ac(a2-3)GalNAc,0.114
same,glycan array binding signal (z-score),[16],-0.218
same,glycan array binding signal (z-score),[17],-0.669
same,glycan array binding signal (z-score),[18],-0.647
same,glycan array binding signal (z-score),[19],0.861
same,glycan array binding signal (z-score),[20],0.294
same,glycan array binding signal (z-score),Neu5Ac(a2-6)Gal,-0.673
same,glycan array binding signal (z-score),[21],-0.358
same,glycan array binding signal (z-score),Neu5Ac(a2-6)Gal(b1-4)Glc,-0.465
same,glycan array binding signal (z-score),[22],-0.575
same,glycan array binding signal (z-score),[23],-0.389
same,glycan array binding signal (z-score),[24],0.056
same,glycan array binding signal (z-score),[25],0.113
same,glycan array binding signal (z-score),[26],0.446
same,glycan array binding signal (z-score),[27],-0.219

# No new results follow: entries from further up.
binder,measurement,setting,value
B1,glycan array binding signal (z-score),[16],-0.218
same,glycan array binding signal (z-score),[17],-0.669
